Results as given in PMC8113490, “Androgen signaling uses a writer and a reader of ADP-ribosylation to regulate protein complex assembly” (Nature Communications, 2021).
Like-named read-outs stand apart in the source and are kept apart here. These are yes or no findings as the source states them, for the method shown. In cells and extracts the contact can be indirect. Some results given as binding are weak or reduced against the parent protein; the word gives no strength. Where a sequence is shown, tags or fusion partners need not be part of it.

Chains of the proteins cited; added tags and fusions are not shown.
UniProt P09874: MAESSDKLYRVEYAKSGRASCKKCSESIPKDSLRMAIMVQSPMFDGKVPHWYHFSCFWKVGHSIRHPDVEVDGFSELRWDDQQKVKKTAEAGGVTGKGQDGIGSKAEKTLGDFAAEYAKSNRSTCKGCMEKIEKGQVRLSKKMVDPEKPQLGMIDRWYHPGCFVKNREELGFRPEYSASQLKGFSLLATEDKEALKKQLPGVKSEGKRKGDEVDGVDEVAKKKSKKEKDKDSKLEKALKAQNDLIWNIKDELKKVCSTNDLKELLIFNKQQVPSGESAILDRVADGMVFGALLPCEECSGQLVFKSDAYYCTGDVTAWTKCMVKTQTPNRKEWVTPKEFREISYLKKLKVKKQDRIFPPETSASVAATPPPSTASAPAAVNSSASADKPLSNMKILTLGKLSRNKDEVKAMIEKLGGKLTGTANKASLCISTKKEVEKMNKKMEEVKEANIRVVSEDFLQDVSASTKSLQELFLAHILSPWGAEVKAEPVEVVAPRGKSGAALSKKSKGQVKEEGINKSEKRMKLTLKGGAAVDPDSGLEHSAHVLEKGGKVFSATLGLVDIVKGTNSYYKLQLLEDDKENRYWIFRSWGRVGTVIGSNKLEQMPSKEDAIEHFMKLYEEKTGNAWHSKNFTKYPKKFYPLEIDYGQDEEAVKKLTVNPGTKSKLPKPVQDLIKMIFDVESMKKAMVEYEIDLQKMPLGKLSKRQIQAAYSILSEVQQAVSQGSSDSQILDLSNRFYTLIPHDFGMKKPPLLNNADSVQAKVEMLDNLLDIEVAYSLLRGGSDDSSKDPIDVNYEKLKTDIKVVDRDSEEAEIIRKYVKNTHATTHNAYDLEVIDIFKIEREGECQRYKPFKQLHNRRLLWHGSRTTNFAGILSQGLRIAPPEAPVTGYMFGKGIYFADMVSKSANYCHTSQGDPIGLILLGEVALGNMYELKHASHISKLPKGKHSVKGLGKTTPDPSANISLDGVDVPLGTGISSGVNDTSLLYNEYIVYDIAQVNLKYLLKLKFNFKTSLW

T1: GST-Af1521 (macrodomain protein Af1521 from Archaeoglobus fulgidus) (Archaeoglobus fulgidus) (UniProt O28751)
T1 sequence: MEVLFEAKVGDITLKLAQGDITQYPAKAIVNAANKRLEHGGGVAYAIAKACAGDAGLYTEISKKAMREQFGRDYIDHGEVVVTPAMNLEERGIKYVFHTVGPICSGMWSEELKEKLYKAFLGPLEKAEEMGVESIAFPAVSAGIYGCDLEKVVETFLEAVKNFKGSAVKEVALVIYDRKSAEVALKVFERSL


Columns and labels:
[1] = molecular target: T1, GST-Af1521 (macrodomain protein Af1521 from Archaeoglobus fulgidus) (Archaeoglobus fulgidus); experiment: pull-down; GST-Af1521 immobilised on glutathione beads (10 μg/10 μl beads), extracts of PC3-AR, PC3-AR-HA-Parp7 or VCaP cells, untreated or treated with R1881 (also other ligands, CHX, Olaparib, shParp7); 4 h, 4 °C; 20 mM Tris-HCl pH 7.5, 50 mM NaCl, 0.5% Triton X-100; immunoblot; only the target purified
[2] = molecular target: T1, GST-Af1521 (macrodomain protein Af1521 from Archaeoglobus fulgidus) (Archaeoglobus fulgidus); experiment: as above; remark: listed apart in the source

| binding [1] | binding [2] | Molecule |
| --- | --- | --- |
| binds |  | Parp1 (from UniProt P09874 1-1014) (enzyme) |
|  | binds | HA-Parp7, automodified in cells (enzyme, UniProt Q7Z3E1 1-657, auto-ADP-ribosylated in cells (sites not mapped for this sample)) MEMETTEPEPDCVVQPPSPPDDFSCQMRLSEKITPLKTCFKKKDQKRLGTGTLRSLRPILNTLLESGSLDGVFRSRNQSTDENSLHEPMMKKAMEINSSCPPAENNMSVLIPDRTNVGDQIPEAHPSTEAPERVVPIQDHSFPSETLSGTVADSTPAHFQTDLLHPVSSDVPTSPDCLDKVIDYVPGIFQENSFTIQYILDTSDKLSTELFQDKSEEASLDLVFELVNQLQYHTHQENGIEICMDFLQGTCIYGRDCLKHHTVLPYHWQIKRTTTQKWQSVFNDSQEHLERFYCNPENDRMRMKYGGQEFWADLNAMNVYETTEFDQLRRLSTPPSSNVNSIYHTVWKFFCRDHFGWREYPESVIRLIEEANSRGLKEVRFMMWNNHYILHNSFFRREIKRRPLFRSCFILLPYLQTLGGVPTQAPPPLEATSSSQIICPDGVTSANFYPETWVYMHPSQDFIQVPVSAEDKSYRIIYNLFHKTVPEFKYRILQILRVQNQFLWEKYKRKKEYMNRKMFGRDRIINERHLFHGTSQDVVDGICKHNFDPRVCGKHATMFGQGSYFAKKASYSHNFSKKSSKGVHFMFLAKVLTGRYTMGSHGMRRPPPVNPGSVTSDLYDSCVDNFFEPQIFVIFNDDQSYPYFVIQYEEVSNTVSI |
